{"source": "PubChem BioAssay AID652243 (Drosophila RNAi Screening Center, 2013)", "aim": "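Fly genes required for human androgen receptor driven transcription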 (primary screen)", "cells": "Drosophila S2R+ cells", "knock-down reagent": "long dsRNA against Drosophila genes", "duration": "72 h (48 h, then 24 h hormone)", "conditions": "synthetic androgen R1881 at 10 nM for 24 h", "detection": "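Firefly light from an androgen-responsive reporter and Renilla control light per well, raw and unnormalised, for each of two replicates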", "scale": "firefly reporter light: higher = more light from androgen-responsive reporter; Renilla control light: higher = more constitutive control signal (cell number, transfection)", "call rule": "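Hit when the log firefly-to-Renilla ratio dropped or increased by a fixed fold versus the mean of GFP or LacZ controls across duplicate plates; lowering cut given as 1.5 and as 3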", "calls": "active = hit: reporter lowered or raised; inactive = no hit", "note": "The deposit covers about 24,000 reagents; this is an unselected part of those that have a named target and a result. Of all reagents, 246 (1%) got an active call. 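Plates not normalised; calls are printed but the firefly/Renilla ratio behind them is not deposited; fold cut for lowering reported inconsistently.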 Raw values vary from plate to plate and are shown uncorrected. Not stated in the record: the amount of reagent."}
{"gene": "CG13364", "dsRNA": "DRSC17898", "firefly reporter light, replicate 1": 1.69e5, "firefly reporter light, replicate 2": 1.66e5, "Renilla control light, replicate 1": 2.05e6, "Renilla control light, replicate 2": 1.80e6, "outcome": "inactive"}
{"gene": "CG13364", "dsRNA": "DRSC21263", "firefly reporter light, replicate 1": 2.11e5, "firefly reporter light, replicate 2": 2.25e5, "Renilla control light, replicate 1": 5.99e5, "Renilla control light, replicate 2": 4.64e5, "outcome": "inactive"}
{"gene": "CG13364", "dsRNA": "DRSC26743", "firefly reporter light, replicate 1": 7.01e5, "firefly reporter light, replicate 2": 6.90e5, "Renilla control light, replicate 1": 1.06e6, "Renilla control light, replicate 2": 9.27e5, "outcome": "inactive"}
{"gene": "CG12376", "dsRNA": "DRSC06144", "firefly reporter light, replicate 1": 8.46e5, "firefly reporter light, replicate 2": 7.56e5, "Renilla control light, replicate 1": 2.26e6, "Renilla control light, replicate 2": 1.94e6, "outcome": "inactive"}
{"gene": "CG12376", "dsRNA": "DRSC29464", "firefly reporter light, replicate 1": 3.46e5, "firefly reporter light, replicate 2": 4.20e5, "Renilla control light, replicate 1": 1.13e6, "Renilla control light, replicate 2": 1.13e6, "outcome": "inactive"}
{"gene": "Rox8", "dsRNA": "DRSC16829", "firefly reporter light, replicate 1": 1.73e5, "firefly reporter light, replicate 2": 2.88e5, "Renilla control light, replicate 1": 2.20e6, "Renilla control light, replicate 2": 2.52e6, "outcome": "inactive"}
{"gene": "Rox8", "dsRNA": "DRSC29536", "firefly reporter light, replicate 1": 2.48e5, "firefly reporter light, replicate 2": 4.60e5, "Renilla control light, replicate 1": 9.43e5, "Renilla control light, replicate 2": 9.43e5, "outcome": "inactive"}
{"gene": "CG13138", "dsRNA": "DRSC02235", "firefly reporter light, replicate 1": 2.22e5, "firefly reporter light, replicate 2": 1.74e5, "Renilla control light, replicate 1": 1.37e6, "Renilla control light, replicate 2": 9.92e5, "outcome": "inactive"}
{"gene": "rempA (reduced mechanoreceptor potential A)", "dsRNA": "DRSC00327", "firefly reporter light, replicate 1": 75877, "firefly reporter light, replicate 2": 1.13e5, "Renilla control light, replicate 1": 5.18e5, "Renilla control light, replicate 2": 7.15e5, "outcome": "inactive"}
{"gene": "5-HT2A (5-hydroxytryptamine (serotonin) receptor 2A)", "dsRNA": "DRSC11990", "firefly reporter light, replicate 1": 39069, "firefly reporter light, replicate 2": 22859, "Renilla control light, replicate 1": 2.89e5, "Renilla control light, replicate 2": 2.81e5, "outcome": "inactive"}
{"gene": "CG34141", "dsRNA": "DRSC38603", "firefly reporter light, replicate 1": 8.46e5, "firefly reporter light, replicate 2": 6.23e5, "Renilla control light, replicate 1": 2.37e6, "Renilla control light, replicate 2": 2.53e6, "outcome": "inactive"}
{"gene": "CG15337", "dsRNA": "DRSC18020", "firefly reporter light, replicate 1": 2.29e5, "firefly reporter light, replicate 2": 3.43e5, "Renilla control light, replicate 1": 1.55e6, "Renilla control light, replicate 2": 1.82e6, "outcome": "inactive"}
{"gene": "CG15337", "dsRNA": "DRSC22778", "firefly reporter light, replicate 1": 3.85e5, "firefly reporter light, replicate 2": 4.74e5, "Renilla control light, replicate 1": 1.21e6, "Renilla control light, replicate 2": 1.37e6, "outcome": "inactive"}
{"gene": "nom (numerous disordered muscles)", "dsRNA": "DRSC16389", "firefly reporter light, replicate 1": 99854, "firefly reporter light, replicate 2": 98947, "Renilla control light, replicate 1": 2.01e6, "Renilla control light, replicate 2": 1.64e6, "outcome": "inactive"}
{"gene": "nom (numerous disordered muscles)", "dsRNA": "DRSC26026", "firefly reporter light, replicate 1": 3.02e5, "firefly reporter light, replicate 2": 2.75e5, "Renilla control light, replicate 1": 7.66e5, "Renilla control light, replicate 2": 6.53e5, "outcome": "inactive"}
{"gene": "Or85c (Odorant receptor 85c)", "dsRNA": "DRSC16766", "firefly reporter light, replicate 1": 75150, "firefly reporter light, replicate 2": 80710, "Renilla control light, replicate 1": 1.19e6, "Renilla control light, replicate 2": 1.22e6, "outcome": "inactive"}
{"gene": "CG1227", "dsRNA": "DRSC12534", "firefly reporter light, replicate 1": 41286, "firefly reporter light, replicate 2": 42743, "Renilla control light, replicate 1": 4.71e5, "Renilla control light, replicate 2": 3.03e5, "outcome": "inactive"}
{"gene": "CG1227", "dsRNA": "DRSC25952", "firefly reporter light, replicate 1": 3.58e5, "firefly reporter light, replicate 2": 4.40e5, "Renilla control light, replicate 1": 8.73e5, "Renilla control light, replicate 2": 8.66e5, "outcome": "inactive"}
{"gene": "Men (Malic enzyme)", "dsRNA": "DRSC12924", "firefly reporter light, replicate 1": 4.36e5, "firefly reporter light, replicate 2": 4.18e5, "Renilla control light, replicate 1": 9.81e5, "Renilla control light, replicate 2": 1.08e6, "outcome": "inactive"}
{"gene": "Men (Malic enzyme)", "dsRNA": "DRSC16738", "firefly reporter light, replicate 1": 3.71e5, "firefly reporter light, replicate 2": 4.02e5, "Renilla control light, replicate 1": 2.41e6, "Renilla control light, replicate 2": 2.10e6, "outcome": "inactive"}
{"gene": "Men (Malic enzyme)", "dsRNA": "DRSC22694", "firefly reporter light, replicate 1": 9.55e5, "firefly reporter light, replicate 2": 8.00e5, "Renilla control light, replicate 1": 2.12e6, "Renilla control light, replicate 2": 2.37e6, "outcome": "inactive"}
{"gene": "Men (Malic enzyme)", "dsRNA": "DRSC39137", "firefly reporter light, replicate 1": 6.05e5, "firefly reporter light, replicate 2": 7.28e5, "Renilla control light, replicate 1": 1.62e6, "Renilla control light, replicate 2": 1.28e6, "outcome": "inactive"}
